Source: PMC7794610
No constants are given. Whether binding was seen depends on the method and setting. Binding seen in cells or lysates may run through a third protein. A yes stands for co-enrichment or nearness to the bait. Other partners may have been found.

B1: CCDC6 (rat, endogenous) (protein, UniProt D4AEK9 1-470)
chain: MADSASESDTDAAGGGPAAMQSSCSATSGGSGGGGGGKSGGIVISPFRLEELTNRLASLQQENKVLKIELETYKLKCKALQEENRDLRKASVTIQARAEQEEEFISNTLFKKIQALQKEKETLAVNYEKEEEFLTNELSRKLMQLQHEKAELEQHLEQEQEFQVNKLMKKIKKLENDTISKQLTLEQLRREKIDLENTLEQEQEALVNRLWKRMDKLEAEKRILQEKLDQPVSAPPSPRDISMEIDSPENMMRHIRFLKNEVERLKKQLRAAQLQHSEKMAQYLEEERHMREENLRLQRKLQREMERREALCRQLSESESSLEMDDERYFNEMSAQGLRPRTVSSPIPYTPSPSSSRPISPGLSYASHTVGFTPPTSLTRAGTSYYNSPGLHVQHMGASHGITRPSPRRSSSPDKFKRPTPPPSPNTQSPVQPPPPPPPPPMQPAVPSAATTTQPAPSQAQHPVHPSSQP
B2: AMPD2 (rat, endogenous) (protein, UniProt Q02356 1-824)
chain: MASYPGPGKSKAKYPFKKRASLQASAAAPEARSGLGASPLQSARSLPGTAPCLKHFPLDLRTSMDGKCKEIAEELFSRSLAESELRSAPYEFPEESPIEQLEERRQRLERQISQDVKLEPDILLRAKQDFLKTDSDSDLQLYKEQGEGQGDRGLWERDVVLEREFQRVIISGEEKCGVPFTDLLDAAKSVVRALFIREKYMALSLQSFCPTTRRYLQQLAEKPLETRTYEQSPDTPVSADAPVHPPALEQHPYEHCEPSTMPGDLGLGLRMVRGVVHVYTRRDPDEHCPEVELPYPDLQEFVADVNVLMALIINGPIKSFCYRRLQYLSSKFQMHVLLNEMKELAAQKKVPHRDFYNIRKVDTHIHASSCMNQKHLLRFIKRAMKRHLEEIVHVEQGREQTLREVFESMNLTAYDLSVDTLDVHADRNTFHRFDKFNAKYNPIGESVLREIFIKTDNKISGKYFAHIIKEVMSDLEESKYQNAELRLSIYGRSRDEWDKLARWAVNHRVHSPNVRWLVQVPRLFDVYRTKGQLANFQEMLENIFLPLFEATVHPASHPELHLFLEHVDGFDSVDDESKPENHVFNLESPLPEAWVEEDNPPYAYYLYYTFANMAMLNHLRRQRGFHTFVLRPHCGEAGPIHHLVSAFMLAENISHGLLLRKAPVLQYLYYLAQIGIAMSPLSNNSLFLSYHRNPLPEYLSRGLMVSLSTDDPLQFHFTKEPLMEEYSIATQVWKLSSCDMCELARNSVLMSGFSHKVKSHWLGPNYTKEGPEGNDIRRTNVPDIRVGYRYETLCQELALITQAVQSEMLETIPEEVGIVMSPGP

Molecular target: MNT (rat, endogenous) (rat (endogenous in UR61-derived cells and C6))
Experiment: affinity purification with mass spectrometry; anti-MNT immunoprecipitation from URMT and URMax34 cells treated with 100 µM Zn2SO4 for 24 h; on-beads trypsin digestion, Q-Exactive, MaxQuant LFQ against IgG control

Binder	binding
B1	binds
B2	binds
